Results: PubChem BioAssay AID2551 (National Center for Advancing Translational Sciences (NCATS), 2010)
The campaign covered roughly 310,000 compounds. About 17,000 (5.5%) were called active. The shares of active, inactive and inconclusive entries below differ from those in the screen. Calls follow the shape of the dose curve; as a rule, active = well fitted inhibition curve with a large enough effect; inconclusive = small, poorly fitted or top-dose-only effect, or effect the other way; inactive = no such curve, though single readings can be large or run the other way. Potencies beside an inconclusive call are fits to weak or partial responses and may not hold up.

Sequences of proteins named here, by UniProt entry; tags and fusion partners are left off. A change or cut given only in a name is not applied to a line headed by its entry.
UniProt P51450: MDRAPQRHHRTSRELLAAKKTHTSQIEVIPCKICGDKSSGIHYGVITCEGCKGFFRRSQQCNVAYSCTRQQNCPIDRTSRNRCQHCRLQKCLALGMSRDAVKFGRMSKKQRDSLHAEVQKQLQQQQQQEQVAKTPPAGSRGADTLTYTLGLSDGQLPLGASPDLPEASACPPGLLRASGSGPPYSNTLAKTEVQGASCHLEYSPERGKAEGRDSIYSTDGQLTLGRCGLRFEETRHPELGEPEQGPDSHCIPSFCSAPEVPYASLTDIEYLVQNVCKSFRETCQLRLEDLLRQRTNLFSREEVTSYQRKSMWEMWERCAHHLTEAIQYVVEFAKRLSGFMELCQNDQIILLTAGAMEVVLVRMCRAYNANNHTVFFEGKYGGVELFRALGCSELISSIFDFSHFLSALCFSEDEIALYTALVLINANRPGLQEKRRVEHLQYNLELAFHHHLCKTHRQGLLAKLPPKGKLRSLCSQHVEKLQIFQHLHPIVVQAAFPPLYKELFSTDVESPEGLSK

What follows are compounds tested against Nuclear receptor ROR-gamma (Mus musculus) (UniProt P51450) (assay: qHTS for inhibitors of ROR gamma transcriptional activity). Conditions: Drosophila S2 Gal4-RORgamma UAS-luciferase reporter, 20 h; activity change, negative = inhibition: at 53.6 µM (top of the series).
How it was run: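 Luminescence from a UAS-regulated Photinus luciferase reporter in stably transfected Drosophila Schneider cells is measured; decreased signal marks ROR gamma inhibition. Fusion expression is induced by 700 uM copper sulfate for 20 hr.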
% is scaled to controls: 0 for no effect and ±100 for the full control effect; potency is read from the fitted curve at half-maximal effect.
Also: nearly all actives have a fitted effect of over 60% in size.

Compound | activity change, negative = inhibition | Potency
CSc1sc(C(=O)O)c(C)c1C(C)=O | inactive: 1.86% | 
N#Cc1cn(-c2ccccc2)nc1-c1ccc2c(c1)OCCO2 |  | inconclusive: 0.141 µM [activator, full curve, poor fit]
O=C(O)c1ccccc1-c1ccccc1C(=O)Nc1nc2ccccc2s1 |  | inconclusive: 20 µM [activator, partial curve, poor fit]
CCCCNC(=O)CCCCCn1c(=O)[nH]c2cc(C(=O)OC)ccc2c1=O | inactive: -23.8% | 
Cc1c(N2C(=O)/C(=C\c3ccccc3O)SC2=S)c(=O)n(-c2ccccc2)n1C |  | inconclusive: 22.4 µM [inhibitor, single point]
CC(C)N(C(=O)COC(=O)c1ccccc1C(=O)c1ccc(Cl)c([N+](=O)[O-])c1)C(C)C | inactive: -22.1% | 
O=[N+]([O-])c1ccc(C2Nc3cccc4cccc(c34)N2)cc1 | inactive: -25.1% | 
CCOc1ccc(N2C(=O)CC(SCC(=O)O)C2=O)cc1 (stereo unspecified) | inactive: -2.07% | 
COc1ccc(-c2nc(NC(=O)c3ccc(OCC(=O)Nc4ccc(F)cc4)c(OC)c3)sc2C)cc1 |  | inconclusive: 35.5 µM [inhibitor, single point]
Cc1cccc(N2CC(=O)N(c3cccc(C)c3)CC2=O)c1 | inactive: 9.77% | 
Cc1cc2ncn(/N=C/c3ccc([N+](=O)[O-])o3)c2cc1C | inactive: -19.3% | 
Cn1c(N2CCN(C(c3ccccc3)c3ccccc3)CC2)nc2ccccc21 |  | active: 11.2 µM
O=[N+]([O-])c1ccc(/C=N/Nc2nc3ccccc3o2)cc1 | inactive: -23.9% | 
CC1=NNC(=O)C1CC(=O)N/N=C/C=C/c1ccccc1 (stereo unspecified) |  | inconclusive: 35.5 µM [inhibitor, single point]
COc1ccc(N2CCN(CC(=O)Nc3cccc(S(=O)(=O)N4CCOCC4)c3)CC2)cc1 | inactive: 10.6% | 
Cc1ccc(OCCN(C)C(=O)C2CCC(=O)N(Cc3ccccc3F)C2)cc1 (stereo unspecified) | inactive: 2.95% | 
Cc1c(O)cc2c(c1O)C(=O)CC(c1ccccc1)O2 (stereo unspecified) | inactive: 0.89% | 
CCCc1nc2ccc(NC(=O)c3cccs3)cc2c(=O)n1Cc1ccc(Cl)cc1 |  | inconclusive: 20 µM [activator, partial curve]
O=C1C=C(Nc2ccccc2)C(=O)c2ccccc21 |  | inconclusive: 14.1 µM [inhibitor, single point]
Cc1cc(O)c(C(C)C)cc1C1(c2cc(C(C)C)c(O)cc2C)OC(=O)c2ccccc21 |  | inconclusive: 35.5 µM [inhibitor, single point]
Cc1c(Cc2ccccc2)c(=O)oc2cc(OCC(=O)N3CCC(C(N)=O)CC3)ccc12 |  | inconclusive: 31.6 µM [activator, single point]
Cn1c(COc2ccc(Br)cc2)nnc1SC1CCc2ccccc2C1=O (stereo unspecified) |  | active: 22.4 µM
Nc1nonc1C(=O)N/N=C/c1ccc(Br)o1 |  | inconclusive: 35.5 µM [inhibitor, single point]
O=C(CCn1nnc2ccccc21)Nc1nnc(Cc2ccccc2)s1 |  | inconclusive: 14.1 µM [inhibitor, single point]
COCCn1nnnc1C(c1cc2c(C)cc(C)cc2[nH]c1=O)N1CCCCCC1 (stereo unspecified) | inactive: 0% | 
COc1cc(-c2n[nH]c(=S)n2Cc2ccccc2)cc(OC)c1OC |  | inconclusive: 15.8 µM [inhibitor, single point]

Record cards (already shown):
Cc1cccc(N2CC(=O)N(c3cccc(C)c3)CC2=O)c1 reads activity change, negative = inhibition: inactive: 9.77%
CCCCNC(=O)CCCCCn1c(=O)[nH]c2cc(C(=O)OC)ccc2c1=O reads activity change, negative = inhibition: inactive: -23.8%
N#Cc1cn(-c2ccccc2)nc1-c1ccc2c(c1)OCCO2 reads Potency: inconclusive: 0.141 µM [activator, full curve, poor fit]
O=[N+]([O-])c1ccc(C2Nc3cccc4cccc(c34)N2)cc1 reads activity change, negative = inhibition: inactive: -25.1%

Next part.

Compound | activity change, negative = inhibition | Potency
CCCCCC(O)c1cccc(OCc2ccc3ccccc3n2)c1 (stereo unspecified) |  | inconclusive: 35.5 µM [activator, single point]
O=C(NC(=S)NNC(=O)c1cccs1)c1ccco1 |  | active: 2.82 µM
Nc1cc(-c2ccccc2)ccc1O |  | inconclusive: 10 µM [inhibitor, partial curve, poor fit]
C=CCn1nnc2sc3c(c2c1=O)CCC(C)C3 (stereo unspecified) |  | inconclusive: 6.31 µM [activator, partial curve]
Cc1ccc(CNC(=O)CCS(=O)(=O)c2ccc3c(c2)CC(C)N3C(=O)C2CC2)o1 (stereo unspecified) | inactive: -5.1% | 
CN(CC(=O)Nc1ccccc1Cl)CC(=O)Nc1ccccc1[N+](=O)[O-] | inactive: 10.6% | 
CC(=O)Nc1ccc(N2CCN(c3ccc(C(F)(F)F)cn3)CC2)nc1 |  | inconclusive: 25.1 µM [activator, single point]
COC(=O)c1sccc1NC(=O)CSc1ccccc1NS(=O)(=O)c1cc(Cl)ccc1Cl |  | inconclusive: 31.6 µM [activator, single point]
O=C(NN1CCOCC1)c1cc(-c2ccncc2)nc2ccccc12 | inactive: -26% | 
O=C(O)COc1ccc(/C=C/C(=O)c2ccc3ccccc3c2)cc1 |  | active: 1.58 µM
COc1ccc2nc(N3C(=O)CC(C(C)c4ccccc4)C3=O)sc2c1 (stereo unspecified) |  | inconclusive: 35.5 µM [activator, partial curve, poor fit]
CCN(CC)CCNC(=O)c1ccc2c(=O)n(C3CCCC3)c(=S)[nH]c2c1 | inactive: -36.8% | 
CN(c1ccccc1)S(=O)(=O)c1cccc(NC(=O)Cn2cnc3c2c(=O)n(C)c(=O)n3C)c1 |  | inconclusive: 0.794 µM [activator, single point]
CCCN1C(=O)S/C(=C/c2ccc(N3CCOCC3)o2)C1=O | inactive: -1.53% | 
C/C(=N\NC(=S)NC1CCCCC1)c1cccc(C(F)(F)F)c1 |  | inconclusive: 0.224 µM [inhibitor, full curve]
CC1CCCN(S(=O)(=O)c2cc(Cl)ccc2Cl)C1 (stereo unspecified) |  | inconclusive: 3.55 µM [activator, single point]
O=C(NCCNC1CCCCC1)c1ccco1 | inactive: 0.0835% | 
CCSc1nnc(N)s1 |  | inconclusive: 1 µM [inhibitor, single point]
Cc1ccc(C(=O)NCC(=O)OCC(=O)/C=C2\N(C)c3ccccc3C2(C)C)cc1C |  | inconclusive: 20 µM [activator, single point]
CCN(CC)c1ccc(/C=C(\C#N)C(=O)NCc2ccccc2)cc1 |  | inconclusive: 11.2 µM [activator, partial curve]
COc1ccccc1Nc1ncnc2c1c(C)c(C)n2CCCN(C)C | inactive: -12.9% | 
Cc1cccc(N2CCN(C(=O)c3cc4ccccc4oc3=O)CC2)c1C |  | inconclusive: 31.6 µM [activator, single point]
O=C(Cc1ccccc1)Nc1ccc(NC(=O)c2cccs2)c(Cl)c1 |  | inconclusive: 14.1 µM [activator, single point]
COC(=O)c1ccccc1NC1CC(=O)N(c2c(C)cccc2C)C1=O (stereo unspecified) |  | inconclusive: 31.6 µM [inhibitor, single point]
CCOC(=O)c1ccccc1N1C(=O)CSC1=S |  | inconclusive: 12.6 µM [inhibitor, single point]
COc1ccccc1CCNS(=O)(=O)c1cn(C)nc1C |  | inconclusive: 14.1 µM [activator, single point]

Compound | activity change, negative = inhibition | Potency
C=CCNC(=S)Nc1ccc(C)cc1[N+](=O)[O-] |  | inconclusive: 35.5 µM [inhibitor, single point]
O=C(NCC1(c2ccccc2)CCCC1)c1ccccc1Br |  | inconclusive: 8.91 µM [activator, partial curve]
Cn1c(CCN2CCN(c3ccccn3)CC2)nc2cc(NC(=O)COc3ccc([N+](=O)[O-])cc3)ccc21 | inactive: -0.827% | 
COc1ccc(C(=O)N/N=C(\c2ccccc2)c2ccccn2)cc1 |  | active: 0.708 µM
O=[N+]([O-])c1ccc2ncnc(N3CCN(Cc4ccc5c(c4)OCO5)CC3)c2c1 |  | inconclusive: 15.8 µM [activator, partial curve, poor fit]
COc1ccccc1N1CCN(C(=O)c2oc3ccc(F)cc3c2C)CC1 | inactive: 14.3% | 
Cc1ccc(N2C(=O)CSC23C(=O)Nc2ccccc23)cc1 (stereo unspecified) |  | inconclusive: 5.62 µM [activator, single point]
Cc1cc(NC(=O)CSc2nc3ccccc3c(=O)n2Cc2ccc(F)cc2)no1 |  | inconclusive: 15.8 µM [inhibitor, single point]
COC(=O)c1cc2occc2n1Cc1ccc(Cl)cc1 |  | inconclusive: 31.6 µM [activator, single point]
Cc1ccccc1OCC(O)CN (stereo unspecified) | inactive: 3.79% | 
Cc1ccc(C)c(NC(=S)NC(C)C(c2cccs2)N2CCOCC2)c1 (stereo unspecified) |  | active: 5.01 µM
Oc1ccc(/C=N/Nc2nccnc2Cl)c(O)c1 |  | inconclusive: 35.5 µM [inhibitor, single point]
CSc1sc(C(=O)NC(=O)NCc2ccncc2)c(C)c1-c1ccon1 | inactive: 4.37% | 
CC(C)(C)C(=O)N1CCN(c2ccc(NC(=O)c3ccc([N+](=O)[O-])o3)cc2)CC1 |  | inconclusive: 35.5 µM [inhibitor, single point]
COc1ccc(-c2csc(NC(=S)NC(=O)c3cccs3)n2)cc1Br |  | active: 4.47 µM
COc1cccc(NC(=O)c2ccc(S(=O)(=O)N3CCCCC3)cc2)c1 |  | inconclusive: 5.62 µM [activator, full curve]
COc1ccc(OCc2nnc(SCC(=O)Nc3ccc(C)cc3)o2)cc1 | inactive: -12.5% | 
Cn1nnnc1N=N/C(=N/Nc1ccccc1)c1ccccc1 |  | active: 0.355 µM
CC(C)(C)c1nnc(NC(=O)c2cc(-c3ccccc3)nc3ccccc23)s1 |  | active: 5.62 µM
COc1ccc(CC2(CO)CCN(Cc3cccc4nccnc34)CC2)cc1 | inactive: 21.1% | 
Cc1ccccc1NC(=S)N1CCN(Cc2ccccc2)CC1 |  | inconclusive: 17.8 µM [inhibitor, single point]
Cc1ccc(OCc2nnc(SCC(=O)C(C)(C)C)n2Cc2ccco2)cc1 | inactive: 25.7% | 
Cc1ccc(-n2nnnc2SCC(=O)Nc2ccc3c(c2)OCCO3)cc1C |  | inconclusive: 35.5 µM [activator, single point]
CCOC(=O)C1CCN(C(=O)c2ccc(OCC)c(OCC)c2)CC1 | inactive: -3.26% [at 10 µM] | 
